Data taken from PubChem BioAssay AID2417 (National Center for Advancing Translational Sciences (NCATS), 2010).
Hit rate of the full screen: of about 140,000 compounds, about 4,300 (3.1%) were called active. Inconclusive means that the source gave no clear call. Such entries were picked first, then a sample of the others.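 Rule for the calls: active = readout at or below -70, meaning at least 70% loss of cells showing the perinucleolar compartment, a nuclear body marking cancer cells; inconclusive = readout between -30 and a set limit; inactive = the rest.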

Assay: High Content Assay for Compounds that inhibit the Assembly of the Perinucleolar Compartment;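 note: plate controls were DMSO wells for no effect and camptothecin positive control wells for full effect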
Settings: PC3M PTB-GFP, PNC prevalence imaging, 16 h; at 10 µM; active compounds read low
How it was run: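 Read-out is percentage of cells bearing a perinucleolar compartment, from automated 20x imaging of fixed, Hoechst-stained PC3M PTB-GFP cells. Cells were seeded 4 h, then exposed 16 h to compound (23 nl of library stock) in duplicate plates.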

Row | Structure (SMILES) | activity change (PNC), negative = inhibition
1 | COc1ccc(C(CC(=O)Nc2cc([N+](=O)[O-])ccc2OC)c2ccccc2)cc1 (stereo unspecified) | inconclusive: -55%
2 | COc1ccc(-c2noc(CSc3nnc(Cc4ccccc4)n3-c3cccc(C)c3)n2)cc1OC | inconclusive: -63.9%
3 | Cc1ccccc1OCc1nc(-c2ccc(NC(=O)c3ccco3)cc2)no1 | active: -100%
4 | CCOC(=O)N1CCN(c2cc(C)nc3nc(C)nn23)CC1 | inconclusive: -42.4%
5 | COC(=O)Nc1ccc(S(=O)(=O)N2CCCC(C(=O)Nc3cccnc3)C2)cc1 (stereo unspecified) | inconclusive: -39.3%
6 | N#CC1=C(N)N(c2ccccc2)C2=C(C(=O)CCC2)C1c1ccccc1 (stereo unspecified) | inactive: 5.97%
7 | Cn1nc(CC(=O)N2CCN(c3ccccc3)CC2)c2ccccc2c1=O | inconclusive: -67.8%
8 | O=C(O)CCCC(=O)Nc1ccc(Br)cc1 | active: -100%
9 | O=C(COc1ccccc1)NC1CCN(Cc2ccccc2)CC1 | inconclusive: -32.8%
10 | COCCN(C(=O)C(C)C)c1nnc(-c2cccc(C)c2)s1 | inconclusive: -68.3%
11 | CCOc1ccc2c(C)c(Cl)c(=O)oc2c1 | inactive: 13.9%
12 | COc1ccc(C(=O)Nc2nc3c(s2)CCCC3)cc1S(=O)(=O)N1CCCc2ccccc21 | active: -123%
13 | COc1cccc(OC)c1C(=O)N1CCN(S(=O)(=O)c2ccccc2)CC1 | active: -98.7%
14 | COc1ccccc1OCC(=O)NNC(=S)NC(=O)c1ccco1 | inconclusive: -62.9%
15 | O=C(c1cccs1)N1CCOCC1 | inactive: 19%
16 | COc1ccc(/C=N/NC(=O)c2cccc(NC(=O)c3ccc(Cl)cc3)c2)c(OC)c1 | inconclusive: -44%
17 | COc1ccc(CCNC(=O)c2cc(S(=O)(=O)N(C)c3ccccc3)ccc2Cl)cc1 | inconclusive: -45.7%
18 | Cc1ccc(C)c(/C(O)=C2/C(=O)C(=O)N(CCN3CCOCC3)C2c2ccco2)c1 (stereo unspecified) | inactive: -29.3%
19 | O=c1c(-c2nnc(SCc3ccc(Cl)cc3Cl)o2)cccn1Cc1ccccc1 | inconclusive: -35.9%

Row | Structure (SMILES) | activity change (PNC), negative = inhibition
20 | Cc1ccc(-c2nn(C)c(=O)c3ccccc23)cc1S(=O)(=O)N1CCOCC1 | inactive: -7.09%
21 | CCCCn1c(=O)c(-[n+]2ccccc2)c([O-])c2ccccc21 | inactive: -21.4%
22 | O=C(O/N=C1/CCSc2ccccc21)c1ccccc1 | inactive: 32.2%
23 | COc1ccc(-c2n[nH]c(=S)n2Cc2ccco2)cc1 | inconclusive: -60.1%
24 | COc1cc(NC(=S)NC(=O)c2ccccc2C)ccc1NC(=O)c1cccs1 | inconclusive: -68.9%
25 | Cc1cccc(C)c1OCC(=O)OCC(=O)c1ccc2c(c1)NC(=O)CO2 | inconclusive: -46.5%
26 | COc1ccc(CNC(=O)c2cc3c(=O)n4ccccc4nc3n(CC3CCCO3)c2=N)cc1 (stereo unspecified) | inconclusive: -57.1%
27 | Cc1noc(C)c1CSc1ncnc2sc(C)c(C)c12 | inactive: -3.48%
28 | CN1/C(=C\C(=O)Nc2ccc(Cl)cc2)C(C)(C)c2ccccc21 | inconclusive: -40%
29 | COC(=O)C1C2C=CC(C3CC23)C1C(=O)OCC(=O)c1ccccc1 (stereo unspecified) | inactive: 22.2%
30 | Cc1ccccc1C(=O)NCCc1nnc(SCC(=O)Nc2nc(-c3ccccc3)cs2)n1C | inactive: 67.5%
31 | COc1ccc(C(=O)Nc2ccc(OCC(F)(F)C(F)F)c(C(F)(F)F)c2)cc1OC | inconclusive: -38.2%
32 | Cc1ccc(C(=O)OCCc2c(C)[nH]n(-c3ccccc3)c2=O)cc1 | inactive: 7.53%
33 | CCOC(=O)C(CC)Sc1nc(N)c(NC(=O)c2ccc(OC)c(OC)c2)c(=O)[nH]1 (stereo unspecified) | inconclusive: -48.9%
34 | S=C(Nc1ccccc1)Nc1ccc(OCc2ccccc2)cc1 | inactive: 66.6%
35 | COC(=O)[C@@]1(Cc2ccc(F)cc2)[C@H]2c3cc(C(=O)N4CCCC4)n(CCc4ccc(O)c(O)c4)c3C[C@H]2CN1C(=O)c1ccccc1 | inactive: 48.1%
36 | CCCC(=O)c1cc(F)c(N2CCN(CCC#N)CC2)cc1C | inconclusive: -51.9%
37 | COc1cccc(NS(=O)(=O)c2cc(C)sc2C)c1 | active: -100%
38 | CC1=Nc2ccccc2/C1=C\c1sc(Nc2ccc(C)cc2)nc1O | inconclusive: -55%

In the list so far, 2 contain a cyano group:
Row | Structure (SMILES) | activity change (PNC), negative = inhibition
6 | N#CC1=C(N)N(c2ccccc2)C2=C(C(=O)CCC2)C1c1ccccc1 (stereo unspecified) | inactive: 5.97%
36 | CCCC(=O)c1cc(F)c(N2CCN(CCC#N)CC2)cc1C | inconclusive: -51.9%

Additional records follow:

Row | Structure (SMILES) | activity change (PNC), negative = inhibition
39 | O=C(c1cc([N+](=O)[O-])ccc1N1CCCCC1)N1CCCC1 | inconclusive: -53.1%
40 | COc1ccc(-c2noc(N3CCC(C(=O)N4CCN(c5ccccn5)CC4)CC3)n2)cc1 | inconclusive: -39.6%
41 | Fc1ccc(CSc2ccc(-c3cccs3)nn2)cc1 | inconclusive: -46.9%
42 | c1cncc(-c2nc3cc(Cc4ccc5oc(-c6cccnc6)nc5c4)ccc3o2)c1 | inconclusive: -41.9%
43 | CCOC(=O)C1=C(N)N2C(=O)CSC2=C(C(=O)OC)C1 | inactive: -10.4%
44 | Cc1ccc(NC(=O)COC(=O)COc2ccc(Cl)cc2)c([N+](=O)[O-])c1 | inconclusive: -53.6%
45 | Clc1cccc(-c2nnc(SC/C=C/c3ccccc3)n2Cc2ccco2)c1 | inconclusive: -56%
46 | O=C(CSc1nnc(NCc2ccccc2)s1)c1ccco1 | inconclusive: -32.4%
47 | COc1cc(/C=N/NC(=O)CCN2CCN(Cc3ccccc3)CC2)cc(OC)c1OC | inactive: 14.4%
48 | CC(C)=C(NC(=O)c1ccccc1)C(=O)NCCCC(=O)O | inconclusive: -47.4%
49 | Cn1cnnc1Sc1ccc(C(=O)OCC(=O)Nc2cc(Cl)cc(Cl)c2)cc1[N+](=O)[O-] | inconclusive: -44%
50 | CN(C)S(=O)(=O)NCc1ccc2c(c1)OCO2 | inconclusive: -74.3%
51 | Cc1cccc(NC(=O)c2ccc(C(=O)Nc3cccc(C)c3)nc2)c1 | inconclusive: -76.6%
52 | CCCOc1ccc(CCN2CCC(=O)NC2=O)cc1C | inconclusive: -46%
53 | CCOC(=O)c1c(C)nc2c(c1C)/C(=N/O)CC(C)(C)C2 | inconclusive: -37.3%
54 | [O-][n+]1onc2c1CCc1nnccc1-2 | inconclusive: -38.1%
55 | CCN(CC)CCCN(Cc1cc2cc3c(cc2[nH]c1=O)OCCO3)C(=O)Nc1ccc(F)cc1 | inactive: -15.8%
56 | COc1ccc(-c2nnc3n2-c2ccccc2SC3)cc1OC | inconclusive: -32.8%

An excerpt of these results, tab-delimited.
Row	Structure (SMILES)	activity change (PNC), negative = inhibition
19	O=c1c(-c2nnc(SCc3ccc(Cl)cc3Cl)o2)cccn1Cc1ccccc1	inconclusive: -35.9%
20	Cc1ccc(-c2nn(C)c(=O)c3ccccc23)cc1S(=O)(=O)N1CCOCC1	inactive: -7.09%
